The text below walks through data of paper doi:10.1101/168518.

Amino acid sequences for entries named in this document (tags omitted). Residues count along the entry.
UniProt Q8TDY2: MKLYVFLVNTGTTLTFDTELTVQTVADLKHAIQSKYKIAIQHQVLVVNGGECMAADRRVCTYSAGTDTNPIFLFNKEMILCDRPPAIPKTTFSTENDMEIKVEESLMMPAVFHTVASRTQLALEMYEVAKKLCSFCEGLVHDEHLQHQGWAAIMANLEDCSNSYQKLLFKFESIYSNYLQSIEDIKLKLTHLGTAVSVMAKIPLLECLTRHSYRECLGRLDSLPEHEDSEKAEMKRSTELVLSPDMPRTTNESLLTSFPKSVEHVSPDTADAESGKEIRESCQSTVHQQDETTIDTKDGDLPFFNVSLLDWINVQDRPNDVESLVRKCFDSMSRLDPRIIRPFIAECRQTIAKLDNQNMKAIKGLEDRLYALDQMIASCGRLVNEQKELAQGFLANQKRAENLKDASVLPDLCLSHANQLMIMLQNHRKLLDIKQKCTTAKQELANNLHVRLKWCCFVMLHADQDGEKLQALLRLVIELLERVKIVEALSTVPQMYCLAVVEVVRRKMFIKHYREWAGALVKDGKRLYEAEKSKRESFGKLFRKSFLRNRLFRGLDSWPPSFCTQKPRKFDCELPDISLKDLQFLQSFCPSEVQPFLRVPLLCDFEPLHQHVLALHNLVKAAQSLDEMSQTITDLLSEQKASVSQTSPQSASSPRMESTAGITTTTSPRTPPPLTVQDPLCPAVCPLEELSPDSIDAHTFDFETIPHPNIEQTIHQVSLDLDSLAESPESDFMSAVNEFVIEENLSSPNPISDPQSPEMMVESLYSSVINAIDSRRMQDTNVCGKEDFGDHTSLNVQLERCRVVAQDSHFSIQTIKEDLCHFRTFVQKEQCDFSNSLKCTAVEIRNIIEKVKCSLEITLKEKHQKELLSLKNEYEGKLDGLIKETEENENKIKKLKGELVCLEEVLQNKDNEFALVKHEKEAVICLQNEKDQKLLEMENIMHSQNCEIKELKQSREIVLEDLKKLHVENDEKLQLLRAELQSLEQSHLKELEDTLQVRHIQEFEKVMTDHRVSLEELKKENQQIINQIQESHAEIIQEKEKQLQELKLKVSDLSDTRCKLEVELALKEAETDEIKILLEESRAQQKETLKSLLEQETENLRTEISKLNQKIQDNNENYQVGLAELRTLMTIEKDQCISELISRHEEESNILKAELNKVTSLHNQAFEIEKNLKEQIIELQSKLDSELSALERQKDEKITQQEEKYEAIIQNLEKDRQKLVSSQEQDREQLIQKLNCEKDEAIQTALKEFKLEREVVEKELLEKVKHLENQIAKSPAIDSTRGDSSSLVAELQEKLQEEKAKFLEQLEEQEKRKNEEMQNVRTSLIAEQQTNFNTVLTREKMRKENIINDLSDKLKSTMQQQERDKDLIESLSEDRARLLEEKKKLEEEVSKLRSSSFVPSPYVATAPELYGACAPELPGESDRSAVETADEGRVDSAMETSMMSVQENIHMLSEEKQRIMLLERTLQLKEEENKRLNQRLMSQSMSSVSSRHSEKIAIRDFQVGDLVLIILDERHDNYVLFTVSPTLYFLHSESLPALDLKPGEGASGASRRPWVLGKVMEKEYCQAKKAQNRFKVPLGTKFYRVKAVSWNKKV
UniProt Q9NT62: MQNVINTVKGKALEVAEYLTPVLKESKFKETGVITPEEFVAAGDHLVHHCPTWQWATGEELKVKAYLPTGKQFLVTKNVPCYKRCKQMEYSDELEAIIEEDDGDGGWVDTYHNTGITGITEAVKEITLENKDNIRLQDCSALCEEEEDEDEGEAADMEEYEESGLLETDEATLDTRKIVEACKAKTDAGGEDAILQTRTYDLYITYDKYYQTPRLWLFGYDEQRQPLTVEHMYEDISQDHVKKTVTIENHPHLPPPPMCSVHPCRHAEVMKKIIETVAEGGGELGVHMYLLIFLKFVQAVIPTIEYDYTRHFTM
UniProt Q14457: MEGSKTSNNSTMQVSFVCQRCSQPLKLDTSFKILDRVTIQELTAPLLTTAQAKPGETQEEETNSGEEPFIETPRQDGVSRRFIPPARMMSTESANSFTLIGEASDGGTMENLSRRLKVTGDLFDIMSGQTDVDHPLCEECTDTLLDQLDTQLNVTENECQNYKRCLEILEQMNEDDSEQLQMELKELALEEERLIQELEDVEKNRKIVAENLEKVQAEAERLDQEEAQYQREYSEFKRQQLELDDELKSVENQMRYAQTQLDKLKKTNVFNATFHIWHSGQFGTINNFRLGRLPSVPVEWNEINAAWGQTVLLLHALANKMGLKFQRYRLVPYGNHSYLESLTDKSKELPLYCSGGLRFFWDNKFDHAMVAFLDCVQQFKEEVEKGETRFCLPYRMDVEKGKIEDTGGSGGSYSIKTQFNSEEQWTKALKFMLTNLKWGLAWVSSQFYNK
UniProt Q5JRA6, residues 23-1907: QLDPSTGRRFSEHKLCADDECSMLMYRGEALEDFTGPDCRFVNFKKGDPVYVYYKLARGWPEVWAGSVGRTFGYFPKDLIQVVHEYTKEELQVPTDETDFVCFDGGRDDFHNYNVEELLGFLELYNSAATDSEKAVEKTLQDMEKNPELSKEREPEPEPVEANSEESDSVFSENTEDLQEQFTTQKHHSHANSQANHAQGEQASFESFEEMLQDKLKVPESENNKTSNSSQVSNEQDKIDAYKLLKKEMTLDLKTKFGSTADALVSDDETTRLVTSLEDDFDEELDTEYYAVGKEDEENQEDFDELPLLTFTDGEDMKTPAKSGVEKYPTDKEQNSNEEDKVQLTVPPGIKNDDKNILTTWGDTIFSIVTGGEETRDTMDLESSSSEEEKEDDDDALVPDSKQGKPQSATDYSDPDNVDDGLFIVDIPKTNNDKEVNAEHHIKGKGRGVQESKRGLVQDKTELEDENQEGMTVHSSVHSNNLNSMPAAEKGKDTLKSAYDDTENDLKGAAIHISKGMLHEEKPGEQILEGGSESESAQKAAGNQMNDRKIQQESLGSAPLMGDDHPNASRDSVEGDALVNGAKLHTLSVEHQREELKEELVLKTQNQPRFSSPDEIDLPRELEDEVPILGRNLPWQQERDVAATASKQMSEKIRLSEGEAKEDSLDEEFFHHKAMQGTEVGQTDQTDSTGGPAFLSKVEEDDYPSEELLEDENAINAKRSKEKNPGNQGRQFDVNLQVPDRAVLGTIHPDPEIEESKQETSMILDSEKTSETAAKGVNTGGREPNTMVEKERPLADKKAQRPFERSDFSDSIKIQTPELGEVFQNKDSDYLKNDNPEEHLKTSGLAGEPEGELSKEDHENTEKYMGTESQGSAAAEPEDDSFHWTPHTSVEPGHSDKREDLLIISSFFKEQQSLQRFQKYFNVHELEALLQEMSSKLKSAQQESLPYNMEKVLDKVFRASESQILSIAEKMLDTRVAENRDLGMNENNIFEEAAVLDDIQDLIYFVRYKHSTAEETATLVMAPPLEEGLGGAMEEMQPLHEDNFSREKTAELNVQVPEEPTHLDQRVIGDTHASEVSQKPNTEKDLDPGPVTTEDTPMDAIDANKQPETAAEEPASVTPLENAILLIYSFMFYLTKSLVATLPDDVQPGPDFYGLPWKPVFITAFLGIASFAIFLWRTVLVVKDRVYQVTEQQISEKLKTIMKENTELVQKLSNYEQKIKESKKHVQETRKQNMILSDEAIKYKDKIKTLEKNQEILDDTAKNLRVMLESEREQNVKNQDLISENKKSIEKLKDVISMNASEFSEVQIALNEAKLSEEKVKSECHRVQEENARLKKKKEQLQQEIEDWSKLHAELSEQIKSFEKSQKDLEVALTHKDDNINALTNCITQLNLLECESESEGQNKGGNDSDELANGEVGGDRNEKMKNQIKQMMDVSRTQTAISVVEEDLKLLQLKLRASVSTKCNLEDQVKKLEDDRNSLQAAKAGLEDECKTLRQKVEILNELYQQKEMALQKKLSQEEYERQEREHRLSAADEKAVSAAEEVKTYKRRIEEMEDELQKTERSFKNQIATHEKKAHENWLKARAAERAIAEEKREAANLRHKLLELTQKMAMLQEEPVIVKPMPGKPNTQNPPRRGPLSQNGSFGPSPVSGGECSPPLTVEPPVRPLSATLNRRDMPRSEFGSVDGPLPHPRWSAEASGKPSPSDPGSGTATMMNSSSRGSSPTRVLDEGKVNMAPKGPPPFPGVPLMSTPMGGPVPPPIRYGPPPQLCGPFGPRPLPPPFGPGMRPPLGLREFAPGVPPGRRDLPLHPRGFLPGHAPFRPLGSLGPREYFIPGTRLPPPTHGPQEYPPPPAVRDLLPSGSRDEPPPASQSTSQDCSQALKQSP

Where two headings read alike, the source gives them in different places. No constants are given. Whether binding was seen depends on the method and setting. For some assays here: Binding seen in cells or lysates may run through a third protein. Some entries that bind do so weakly or less than the wild type. For some assays here: Where a sequence is shown, tags or fusion partners need not be part of it.

Experiment [1] concerns the target T1, FLAG-SEC12 (UniProt Q9HCU5).
T1 sequence: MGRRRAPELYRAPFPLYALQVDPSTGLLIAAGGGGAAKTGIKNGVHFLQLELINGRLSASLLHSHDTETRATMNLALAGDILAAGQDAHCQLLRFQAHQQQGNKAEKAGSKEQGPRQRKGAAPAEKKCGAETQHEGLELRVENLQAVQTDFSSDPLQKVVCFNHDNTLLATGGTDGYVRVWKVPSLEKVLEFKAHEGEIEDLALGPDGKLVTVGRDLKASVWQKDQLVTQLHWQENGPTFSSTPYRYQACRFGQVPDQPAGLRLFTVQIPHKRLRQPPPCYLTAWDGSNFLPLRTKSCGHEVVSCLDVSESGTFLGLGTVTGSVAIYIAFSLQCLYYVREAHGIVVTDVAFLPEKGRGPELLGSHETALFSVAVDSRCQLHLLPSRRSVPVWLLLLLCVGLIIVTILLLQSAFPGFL
Description: co-IP.

Experiment [2] addresses T2, SEC12 (endogenous) (human (endogenous in HeLa)) (UniProt Q9HCU5).
T2 sequence: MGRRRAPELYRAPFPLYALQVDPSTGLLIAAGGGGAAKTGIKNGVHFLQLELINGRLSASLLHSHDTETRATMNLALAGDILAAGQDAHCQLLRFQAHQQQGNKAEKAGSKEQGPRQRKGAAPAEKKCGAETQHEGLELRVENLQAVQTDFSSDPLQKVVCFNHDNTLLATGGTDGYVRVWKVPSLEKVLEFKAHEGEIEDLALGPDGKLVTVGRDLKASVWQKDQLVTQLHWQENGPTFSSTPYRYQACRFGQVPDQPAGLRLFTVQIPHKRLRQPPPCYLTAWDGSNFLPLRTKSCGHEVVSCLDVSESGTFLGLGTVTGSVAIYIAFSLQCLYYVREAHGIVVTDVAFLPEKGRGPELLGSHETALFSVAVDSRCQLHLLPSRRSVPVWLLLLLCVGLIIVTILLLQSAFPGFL
Description: co-IP.

Experiment [3] deals with FLAG-FIP200 (UniProt Q8TDY2). The experiment in a line: co-IP.
Experiment [4] has as its target T2, SEC12 (endogenous) (human (endogenous in HeLa)). Description: native gel or EMSA. A general note: In EMSA bound probe runs differently from free probe, usually more slowly.
Experiment [5] deals with FIP200 (endogenous) (human (endogenous in HEK293T and HeLa)) (UniProt Q8TDY2). Description: co-IP.
For experiment [6], the target named is T1, FLAG-SEC12. Description: co-IP. This is another data set of the same source.

As to “ATG3 (endogenous) (from UniProt Q9NT62 1-314)”, the binding result in experiment [1] is “no binding”.
On the same count and under the same terms, the value for “BECN1 (endogenous) (from UniProt Q14457 1-450)” was “no binding”.
Take “FIP200 (endogenous) (from UniProt Q8TDY2 1-1594)”: the binding entry in experiment [1] and in experiment [2] was “binds” throughout.
For the molecule “HA-SEC12 (240-386), C-terminal half of the SEC12 cytoplasmic domain (from UniProt Q9HCU5 240-386) (domain or fragment)”, the binding entry in experiment [3] is given as “binds”.
For the molecule “TANGO1 (endogenous) (from UniProt Q5JRA6 23-1907)”, in experiment [4], the binding entry is reported as “binds”.

B1: SEC12 (endogenous) (protein, UniProt Q9HCU5 1-417)
chain: MGRRRAPELYRAPFPLYALQVDPSTGLLIAAGGGGAAKTGIKNGVHFLQLELINGRLSASLLHSHDTETRATMNLALAGDILAAGQDAHCQLLRFQAHQQQGNKAEKAGSKEQGPRQRKGAAPAEKKCGAETQHEGLELRVENLQAVQTDFSSDPLQKVVCFNHDNTLLATGGTDGYVRVWKVPSLEKVLEFKAHEGEIEDLALGPDGKLVTVGRDLKASVWQKDQLVTQLHWQENGPTFSSTPYRYQACRFGQVPDQPAGLRLFTVQIPHKRLRQPPPCYLTAWDGSNFLPLRTKSCGHEVVSCLDVSESGTFLGLGTVTGSVAIYIAFSLQCLYYVREAHGIVVTDVAFLPEKGRGPELLGSHETALFSVAVDSRCQLHLLPSRRSVPVWLLLLLCVGLIIVTILLLQSAFPGFL
On to B1, for which the binding entry in experiment [5] is “binds”.

B2: WIPI2 (endogenous) (protein, UniProt Q9Y4P8 1-454)
chain: MNLASQSGEAGAGQLLFANFNQDNTEVKGASRAAGLGRRAVVWSLAVGSKSGYKFFSLSSVDKLEQIYECTDTEDVCIVERLFSSSLVAIVSLKAPRKLKVCHFKKGTEICNYSYSNTILAVKLNRQRLIVCLEESLYIHNIRDMKVLHTIRETPPNPAGLCALSINNDNCYLAYPGSATIGEVQVFDTINLRAANMIPAHDSPLAALAFDASGTKLATASEKGTVIRVFSIPEGQKLFEFRRGVKRCVSICSLAFSMDGMFLSASSNTETVHIFKLETVKEKPPEEPTTWTGYFGKVLMASTSYLPSQVTEMFNQGRAFATVRLPFCGHKNICSLATIQKIPRLLVGAADGYLYMYNLDPQEGGECALMKQHRLDGSLETTNEILDSASHDCPLVTQTYGAAAGKGTYVPSSPTRLAYTDDLGAVGGACLEDEASALRLDEDSEHPPMILRTD
B2: the binding result in experiment [6] is listed as “no binding”.
